Source: PubChem BioAssay AID1259405 (NCATS, 2018)
In all, the deposit lists about 50,000 reagents; shown is an unselected part. About 4,000 of all reagents (8%) count as active. 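Mouse siRNA library applied to hamster cells; one well for each siRNA.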 Reagents against one gene are numbered here. Reagent sequences are not shown.

Assay: 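Silenced genes that increase secreted GFP made by CHO cells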 (primary screen)
System: Chinese hamster CHO-K1 ovary cells with stable secreted eGFP expression
Knock-down reagent: single siRNA against mouse genes, 0.8 pmol siRNA per well (2 µl of 400 nM stock)
Timing: 3 days
Measured: 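Percent of the per-plate non-targeting control median for intracellular GFP per well by laser scanning cytometry and for cell viability by ATP luminescence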
Direction: GFP, % of control: higher = more GFP per well, higher productivity; viability (ATP), % of control: higher = more viable cells (more ATP)
Active means: 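a knock-down is called active if GFP reaches 120% or more of non-targeting control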

Sec14l4 (SEC14-like lipid binding 4) #1 → GFP, % of control = 79.2; viability (ATP), % of control = 89.5; call = inactive
Sec14l4 (SEC14-like lipid binding 4) #2 → GFP, % of control = 88.8; viability (ATP), % of control = 92.9; call = inactive
Sec14l4 (SEC14-like lipid binding 4) #3 → GFP, % of control = 109; viability (ATP), % of control = 78.7; call = inactive
Sorbs2 (sorbin and SH3 domain containing 2) #1 → GFP, % of control = 56.9; viability (ATP), % of control = 70; call = inactive
Sorbs2 (sorbin and SH3 domain containing 2) #2 → GFP, % of control = 60.9; viability (ATP), % of control = 69.1; call = inactive
Sorbs2 (sorbin and SH3 domain containing 2) #3 → GFP, % of control = 89.3; viability (ATP), % of control = 69.8; call = inactive
D17H6S53E (DNA segment, Chr 17, human D6S53E) #1 → GFP, % of control = 38.2; viability (ATP), % of control = 80.2; call = inactive
D17H6S53E (DNA segment, Chr 17, human D6S53E) #2 → GFP, % of control = 87.9; viability (ATP), % of control = 76.1; call = inactive
D17H6S53E (DNA segment, Chr 17, human D6S53E) #3 → GFP, % of control = 49.4; viability (ATP), % of control = 29.5; call = inactive
Gm5134 (predicted gene 5134) #1 → GFP, % of control = 76.7; viability (ATP), % of control = 120; call = inactive
Gm5134 (predicted gene 5134) #2 → GFP, % of control = 46.1; viability (ATP), % of control = 69.2; call = inactive
Gm5134 (predicted gene 5134) #3 → GFP, % of control = 102; viability (ATP), % of control = 100; call = inactive
Gnai3 (G protein subunit alpha i3) #1 → GFP, % of control = 105; viability (ATP), % of control = 55.2; call = inactive
Gnai3 (G protein subunit alpha i3) #2 → GFP, % of control = 98.2; viability (ATP), % of control = 67.8; call = inactive
Gnai3 (G protein subunit alpha i3) #3 → GFP, % of control = 101; viability (ATP), % of control = 64.8; call = inactive
Or2y1e (olfactory receptor family 2 subfamily Y member 1E) #1 → GFP, % of control = 102; viability (ATP), % of control = 95.3; call = inactive
Or2y1e (olfactory receptor family 2 subfamily Y member 1E) #2 → GFP, % of control = 48.4; viability (ATP), % of control = 58.7; call = inactive
Or2y1e (olfactory receptor family 2 subfamily Y member 1E) #3 → GFP, % of control = 54.2; viability (ATP), % of control = 95.6; call = inactive

3 entries already listed, arranged by “viability (ATP), % of control”, high to low:
Sec14l4 (SEC14-like lipid binding 4) #2 → GFP, % of control = 88.8; viability (ATP), % of control = 92.9; call = inactive
Sec14l4 (SEC14-like lipid binding 4) #1 → GFP, % of control = 79.2; viability (ATP), % of control = 89.5; call = inactive
Sec14l4 (SEC14-like lipid binding 4) #3 → GFP, % of control = 109; viability (ATP), % of control = 78.7; call = inactive
